# In PubChem BioAssay AID504467 (National Center for Advancing Translational Sciences (NCATS), 2011):
# About 7,700 (2.3%) of roughly 330,000 compounds were called active. The shares of active, inactive and inconclusive entries below differ from those in the screen. Calls follow the shape of the dose curve; as a rule, active = well fitted inhibition curve with a large enough effect; inconclusive = small, poorly fitted or top-dose-only effect, or effect the other way; inactive = flat fitted curve, though single readings scatter. Potencies of inconclusive entries are doubtful fits and often do not repeat.
# Test: qHTS screen for small molecules that inhibit ELG1-dependent DNA repair in human embryonic kidney (HEK293T) cells expressing luciferase-tagged ELG1; also: nearly all actives have a fitted effect of over 55% in size
# Conditions: HEK293T ELG1-luciferase reporter, luminescence, 16 h, DNA damage induced by 5-fluorouridine; activity change, negative = inhibition: at 46.1 µM (top of the series)
# In short: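 Reporter activity after DNA damage by 5-fluorouridine is monitored. Compound-treated cells incubate 16 hr at 37 °C, then ONE-Glo is added for 30 min before luminescence reading.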
# % is scaled to controls: 0 for no effect and ±100 for the full control effect; potency is read from the fitted curve at half-maximal effect.
Compound,Potency,"activity change, negative = inhibition"
COCCCn1c2nc3ccccc3nc2c2c(=O)n(Cc3ccccc3Cl)cnc21,"inconclusive: 5.8 µM [inhibitor, single point]",
COc1cc(C)ccc1OCC(=O)Nc1nnc(C2CC2)s1,"inconclusive: 16.4 µM [activator, single point]",
COc1cccc(NC(=O)CN(C)C(=O)/C=C/c2cn(Cc3ccccc3)nc2-c2cccnc2)c1,active: 14.6 µM,
COC(=O)c1ccnc(SCC(=O)c2ccccc2)c1,"inconclusive: 5.17 µM [activator, partial curve]",
CCOc1ccc(/C=N/Nc2nc(N3CCCC3)nc(N3CCCC3)n2)cc1OC,"inconclusive: 35.5 µM [inhibitor, single point]",
CCCN(CC(=O)Nc1ccccc1OC)C(=O)c1cccc(S(=O)(=O)Nc2ccc(OC)cc2)c1,,inactive: -12.4%
COC(=O)Nc1nn(-c2ccc(Cl)cc2)c(=O)c(C#N)c1C,,inactive: -0.345%
Cc1ccccc1Cn1cc(NC(=O)c2cc3nc(-c4ccco4)cc(C(F)(F)F)n3n2)cn1,active: 6.51 µM,
O=C1OC(c2ccccc2)=N/C1=C\C=C\c1ccco1,,inactive: 8.18%
COc1ccc(C(=O)Nc2cccc(/C(C)=N/NC(=O)c3ccc([N+](=O)[O-])c(C)c3)c2)cc1OC,"inconclusive: 18.4 µM [inhibitor, single point]",
Cc1cccc(-c2oc3ccccc3c2C#CCCO)c1,"inconclusive: 25.9 µM [activator, single point]",
O=[N+]([O-])c1ccc(N2CCN(Cc3ccccc3)CC2)s1,"inconclusive: 32.6 µM [inhibitor, partial curve, poor fit]",
N#Cc1cccnc1N1CCN(C(=O)c2cccc3c2C(=O)c2ccc(-c4ccc(F)cc4OCc4ccccc4)cc2S3(=O)=O)CC1,"inconclusive: 4.61 µM [inhibitor, full curve]",
CC(C)Sc1nnc(NC(=O)C2CC2)s1,"inconclusive: 20.6 µM [activator, partial curve]",
COC(=O)C1=C(C)NC(=O)CC1c1ccc(C(=O)OC)cc1 (stereo not drawn),"inconclusive: 9.2 µM [activator, partial curve, poor fit]",
COc1ccc(C(=O)Cc2cc(OC)c(OC)cc2C(=O)c2ccccc2F)cc1OC,"inconclusive: 20.6 µM [inhibitor, partial curve, poor fit]",
COc1ccc(/C=N/OCc2nc3c4c(ncn3n2)Oc2ccc3ccccc3c2C4c2ccccc2)cc1 (stereo not drawn),"inconclusive: 18.4 µM [activator, single point]",
COc1ccc(S(=O)(=O)N2CCOC2CNC(=O)C(=O)NCCc2ccc(OC)c(OC)c2)cc1C (stereo not drawn),active: 14.6 µM,
CCCCC(=O)N1C/C=C\C(c2ccc(OC)cc2)N(Cc2ccc(F)cc2)C(=O)[C@H]1Cc1ccccc1 (stereo partly drawn),"inconclusive: 29.1 µM [inhibitor, partial curve, poor fit]",
CCNS(=O)(=O)c1ccc(NC(=O)c2ccccc2SCCOC)cc1,,inactive: -11.8%
Cc1ccc(-c2cc([C@H]3[C@H]4C=CC[C@@H](C)[C@@H]4C(=O)N3Cc3ccccc3)ccc2F)cc1,,inactive: -17%
CN1CCN(C(=O)c2cc3c(=O)n4ccccc4nc3s2)CC1,"inconclusive: 16.4 µM [activator, partial curve, poor fit]",
CC(=O)c1c(C)[nH]c(C(=O)Nc2cc(S(=O)(=O)N(C)C)ccc2C)c1C,"inconclusive: 18.3 µM [activator, single point]",

# 2 entries picked at random from the list so far:
Compound,Potency,"activity change, negative = inhibition"
CCCCC(=O)N1C/C=C\C(c2ccc(OC)cc2)N(Cc2ccc(F)cc2)C(=O)[C@H]1Cc1ccccc1 (stereo partly drawn),"inconclusive: 29.1 µM [inhibitor, partial curve, poor fit]",
COc1ccc(C(=O)Cc2cc(OC)c(OC)cc2C(=O)c2ccccc2F)cc1OC,"inconclusive: 20.6 µM [inhibitor, partial curve, poor fit]",

# (more compounds)

Compound,Potency,"activity change, negative = inhibition"
O=C(COC(=O)c1ccc(O)cc1)Nc1ccc(S(=O)(=O)N2CCCC2)cc1,"inconclusive: 25.9 µM [inhibitor, single point]",
COc1ccc(C(=O)CNc2ccc3ccccc3c2)cc1,"inconclusive: 16.4 µM [activator, partial curve]",
CCN(CC)CCCNC(=O)c1cc2c(=O)n(C)c3ccccc3c2n1C,"inconclusive: 16.4 µM [activator, single point]",
CC1(C(=O)NC2CCCCC2)CCC(=O)N1Cc1ccc2c(c1)OCO2 (stereo not drawn),,inactive: 11.5%
CC(=O)Nc1ccc(SC[C@H](C)CN2CC[C@H](O)CCC2=O)cc1,"inconclusive: 32.6 µM [activator, single point]",
CCNC(=O)Nc1ccc(-n2nc(C)c(C(=O)OCC)c2C)nc1,,inactive: 3.08%
CCOc1c2ccc(C(=O)NCc3ccc(C)cc3)cc2nn1CCOC,,inactive: -3.44%
COc1cccc(/C=N/NC(=O)c2ccccc2N(Cc2ccccc2)S(=O)(=O)c2ccccc2)c1OC,"inconclusive: 17.8 µM [inhibitor, partial curve, poor fit]",
Cc1ccc(Cn2c(SCC(=O)NCC3CCCO3)nc3ccsc3c2=O)cc1 (stereo not drawn),"inconclusive: 1.16 µM [inhibitor, single point]",
COCCN(CCOC)C(=O)CSc1ccc(S(=O)(=O)N2CCN(C)CC2)cn1,,inactive: 27.3%
O=C(COC(=O)Cc1ccsc1)NCC12CC3CC(CC(C3)C1)C2,,inactive: 13.7%
Cc1ccc(S(=O)(=O)c2nc(NCCCn3ccnc3)sc2Cl)cc1,"inconclusive: 15.8 µM [inhibitor, single point]",
Cc1ccc(Cn2c(=N)c(C(=O)NCC3CCCO3)cc3c(=O)n4cccc(C)c4nc32)cc1 (stereo not drawn),,inactive: -2.12%
CC(C)(C)c1ccc(C(=O)NCCCNC(=O)c2cccnc2)cc1,"inconclusive: 10.3 µM [activator, single point]",
CN(NC1OC(=O)c2ccccc21)c1c([N+](=O)[O-])cc(C(F)(F)F)cc1[N+](=O)[O-] (stereo not drawn),"inconclusive: 25.9 µM [activator, single point]",
CSc1ccc(NC(=O)NCc2cccnc2)cc1,"inconclusive: 0.0046 µM [activator, full curve, poor fit]",
CC1CCN(CC(=O)c2cccs2)CC1,,inactive: 13.9%
O=C(C[n+]1ccccc1)N/N=C/c1ccccc1Cl,"inconclusive: 10 µM [activator, partial curve, poor fit]",
CCCC(=O)Nc1ccc(C#Cc2ccccc2)cc1,"inconclusive: 11.2 µM [activator, partial curve, poor fit]",
CCCNC(=O)c1cccc(COc2ccccc2OC)c1,"inconclusive: 2.31 µM [activator, full curve]",
CN(C1CCCCC1)S(=O)(=O)c1ccc(S(=O)(=O)N2CCN(C(=O)c3ccccc3F)CC2)cc1,active: 18.4 µM,
CCOC(=O)[C@@H]1[C@H]2COc3ccccc3[C@H]2N2C(=O)N(c3cccc(Cl)c3)C(=O)[C@@]12C,"inconclusive: 20.6 µM [inhibitor, single point]",
COc1ccc(C(=O)N/C(=C\c2cc(OC)c(OC)cc2[N+](=O)[O-])C(=O)NCCO)cc1,,inactive: -7.28%

Compound,Potency,"activity change, negative = inhibition"
CCCC(=O)Nc1nc2ccc(OCC)cc2s1,"inconclusive: 6.51 µM [activator, partial curve]",
Fc1ccc(Nc2nnc(C(F)(F)F)s2)cc1Cl,"inconclusive: 29.1 µM [inhibitor, single point]",
Cc1ccccc1-c1nc(CS(=O)(=O)CC(=O)NC(C)c2ccccc2)c(C)o1 (stereo not drawn),"inconclusive: 16.4 µM [inhibitor, single point]",
CCc1c(C)c(C#N)c2nc3ccccc3n2c1NC,,inactive: -4.29%
O=C(/C=C/c1ccc(Br)cc1)NC1CCCCCC1,"inconclusive: 23.1 µM [activator, partial curve, poor fit]",
CN(C)C(=O)/C=C\c1cn(-c2ccccc2)nc1-c1ccc2c(c1)OCCO2,active: 16.4 µM,
O=C(Nc1ccccn1)c1ccc(NC(=O)c2ccco2)cc1,"inconclusive: 1.58 µM [activator, full curve, poor fit]",
COc1ccc(CCNC(=O)c2c(O)c3ccccc3[nH]c2=O)cc1,,inactive: -9.15%
COc1ccc(CC(NC(C)=O)C(=O)NC2CCN(c3nc(C)cc(C)c3C#N)CC2)cc1 (stereo not drawn),"inconclusive: 29.1 µM [inhibitor, single point]",
Cc1cc(NC(=O)c2cnn3c(C(F)(F)F)cc(-c4ccccc4)nc23)no1,active: 7.31 µM,
O=C(Nc1ccccc1)c1ccccc1N=Cc1ccccc1O,"inconclusive: 23.1 µM [activator, single point]",
COC(=O)[C@@]1(Cc2ccc(OC)cc2)[C@@H]2C(=CC(=O)[C@H]2CC(=O)C(=O)N(C)C)CN1C(=O)c1ccccc1,active: 9.2 µM,
C[C@@H](NC(=O)c1[nH]cnc1C(=O)Nc1ccccc1)c1ccccc1,"inconclusive: 29.1 µM [inhibitor, single point]",
Nn1c(Cc2ccccc2)nc2sc3c(c2c1=O)CCC3,"inconclusive: 2.06 µM [inhibitor, partial curve, poor fit]",
CN(C)S(=O)(=O)c1cc(NC(=O)CSc2nn(-c3ccc(Cl)cc3)c(=S)s2)ccc1Cl,"inconclusive: 29.1 µM [inhibitor, single point]",
Cc1cccc(N2CCN(C(=O)c3ccccc3OCc3c(C)noc3C)CC2)c1C,,inactive: -26%
COc1ccc(-c2nnn(CC(=O)N(CCCO)C(C(=O)NC3CCCC3)c3ccc(F)cc3)n2)cc1 (stereo not drawn),,inactive: -10.1%
CCC(=O)Nc1nnc(S(=O)(=O)N(C)Cc2ccco2)s1,,inactive: 12.3%
COc1ccc(OCC#CCNC(C)(C)C)cc1,"inconclusive: 23.1 µM [activator, single point]",
CCN(CC(=O)Nc1c(F)cccc1F)C(=O)Cc1c[nH]c2ccccc12,"inconclusive: 14.6 µM [activator, partial curve, poor fit]",
COc1ccccc1NC(=O)c1ccc2c(=O)n3c(nc2c1)CCC3,"inconclusive: 29.1 µM [activator, single point]",

# Gathered by group, the compounds so far with a tert-butyl group.
Compound,Potency,"activity change, negative = inhibition"
CC(C)(C)c1ccc(C(=O)NCCCNC(=O)c2cccnc2)cc1,"inconclusive: 10.3 µM [activator, single point]",
COc1ccc(OCC#CCNC(C)(C)C)cc1,"inconclusive: 23.1 µM [activator, single point]",
